In PubChem BioAssay:
Inconclusive means that the source gave no clear call. Such entries were picked first, then a sample of the others. The source made the active and inactive calls.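 The calls were made as follows: active = Fgf4 expression under 0.8 fold of control in both repeat measurements at one or both tested doses; inconclusive = under 0.8 fold in just a single repeat measurement; inactive = the rest.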

Experiment: Fgf4 repression measured by qPCR – cell-based, mouse ESC, RT-qPCR, cherry-pick, esBAF inhibitor project, confirmation (AID 743177);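 also: Fgf4 transcript normalised to actin in duplex TaqMan qPCR; cells exposed to compound for 24 h before lysis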
Details: mouse ESC E14, Fgf4 mRNA qPCR fold change; at 33 µM; active compounds read low

Structure (SMILES)	Fgf4 expression fold change
Cc1ccc(SCCN2CCC(C)CCC2=O)cc1 (stereo not given)	inconclusive: 0.727
CC(C)CN1C(=O)c2ccc(NC(=O)c3cccs3)cc2C1=O	inactive: 0.974
COc1ccc(-c2csc(C(O)c3ccccc3)n2)cc1 (stereo not given)	inconclusive: 0.775
COC(=O)c1c(-c2ccc(SC)cc2)sc2ccc(OC)cc12	inactive: 0.829
COc1ccc(-c2cc(C(=O)Nc3ccc(C(N)=O)cc3)c3ccccc3n2)cc1	inconclusive: 0.763
Cc1cccc(-n2nnc(C(=O)Nc3ccc(F)cc3)c2N)c1	inactive: 0.838
CC(C)c1ccc(NC(=O)c2ccc3snnc3c2)cc1	inactive: 0.938
O=C(Nc1ccc(SC(F)F)cc1)C12CCC(CC1)C2	inconclusive: 0.79
CC(C)CN=c1cc(-c2ccccc2)oc2ccc(Cl)cc12	inconclusive: 0.619
CC(=O)Nc1ccc2c(c1)Cc1c(F)cccc1-2	inconclusive: 0.87
Cn1c(/C=C/c2ccc(Br)cc2)nc2ccccc2c1=O	inconclusive: 0.731
O=C(O)c1ccc2noc(-c3ccccc3)c2c1	inconclusive: 0.779
CC(NC(=O)c1cc(COc2ccc(-n3cncn3)cc2)on1)c1ccc(F)cc1 (stereo not given)	inconclusive: 0.512
ClCCn1cnc2c(SCc3ccccc3)ncnc21	inconclusive: 0.66
COc1cccc(N2CCN(C(=O)c3ccc4nc(N5CCCCC5)sc4c3)CC2)c1	inconclusive: 0.917
O=C1NC(=Nc2ccccc2)S/C1=C\c1cccn1-c1ccccc1	active: 0.444
CC(=O)Oc1ccc(-c2cc3ccccc3oc2=O)cc1	inconclusive: 0.511
Cc1ccc2c(COC(=O)C34CC5CC(CC(C5)C3)C4)cc(=O)oc2c1	inactive: 0.883
COc1cc(/C=C/c2ccc(O)cc2)cc(OC)c1	inactive: 0.965
O=C(Nc1ccc(Cl)c(Cl)c1)Nc1ccccc1O	inconclusive: 0.649

Structure (SMILES)	Fgf4 expression fold change
COc1ccc(C(=O)NCCS(=O)(=O)NCCc2ccccc2)cc1	inactive: 1.16
O=C(NCCO)c1cccc(-c2cnc3c(Nc4cccc(OC(F)(F)C(F)F)c4)nccn23)c1	inconclusive: 0.716
COc1cccc(C(=O)c2cc3cc(Cl)ccc3[nH]2)c1	inconclusive: 0.566
O=C(c1ccc(Cl)cc1)c1cnc(Nc2ccccc2)s1	inactive: 0.927
CCN(CC)C(=O)OCc1c(-c2ccccc2)ncc2ccccc12	inconclusive: 0.769
Nc1ccc(C#Cc2ccc3c(=O)c4ccccc4oc3c2)cc1	active: 0.562
Cc1nc(-c2ccccc2)nc2[nH]ccc(=O)c12	inconclusive: 1.21
O=C(Nc1nc2c(s1)CCc1ccccc1-2)c1cccs1	inconclusive: 0.791
COc1ccccc1N1C(=O)S/C(=C\c2ccc(C)s2)C1=O	inconclusive: 1
COc1cc(/C=C/c2nc3ccccc3c(=O)[nH]2)ccc1OC(F)F	inactive: 1
Cc1ccc(NC(=O)CN2C(=O)N/C(=C/c3ccccc3OCc3cccc(C(=O)O)c3)C2=O)cc1	inactive: 0.838
COc1cccc(OCc2cc(C(=O)N(C)C3CCCCC3)no2)c1	inactive: 0.943
Cc1cc2nc(N3CCN(C(=O)c4cccs4)CC3)sc2cc1C	inconclusive: 0.609
Cn1c(/C(C#N)=C(\O)c2ccc(Cl)s2)nc2ccccc21	inconclusive: 0.768
Cc1ccc2c(CN(C)Cc3cccc(F)c3)cc(=O)oc2c1	inconclusive: 0.767
Cn1c(-c2ncc(F)cc2F)cc2onc(-c3c(F)cccc3Cl)c2c1=O	inconclusive: 0.718
Cc1ccc(Nc2cccccc2=O)cc1	inactive: 1.08
N#Cc1c(/N=C/c2cccs2)sc2c1CCC2	inconclusive: 0.796
Cc1ccnc(NC(=O)c2ccc(OCc3c(C)noc3C)cc2)c1	inconclusive: 0.783
COc1cc2[nH]c(C(=O)N3CCc4ccccc43)cc2c(OC)c1OC	inactive: 1.15

Three of these compounds, set out differently:
O=C(Nc1nc2c(s1)CCc1ccccc1-2)c1cccs1
  Fgf4 expression fold change: inconclusive: 0.791
COc1cccc(OCc2cc(C(=O)N(C)C3CCCCC3)no2)c1
  Fgf4 expression fold change: inactive: 0.943
N#Cc1c(/N=C/c2cccs2)sc2c1CCC2
  Fgf4 expression fold change: inconclusive: 0.796
